Where “and” joins values, the source holds several entries; their conditions need not be identical. Equal entries are not always repeated. Out of some 410,000 compounds screened, about 18,000 (4.4%) were called active. This list was built around the results that the source calls inconclusive (neither active nor inactive); the mix of calls is not that of the screen. Cut-off read from the data, not from the text of the source: active = activity change below about -60%; inconclusive = no clear call, values can overlap the other calls; inactive = above about -39%.
Experiment: qHTS Assay for inhibitors of the human cytomegalovirus (HCMV)
Conditions: HFF cells, HCMV-luciferase reporter, 72 h; at 57.5 µM; active compounds read low
Summary of the method: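 HFF cells seeded 16 h at 37C, treated with compounds, infected with luciferase-reporter HCMV at MOI 1 PFU/cell; luciferase read at 72 h post infection, normalized to buffer-only and Salinomycin controls.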
% is set by controls: 0 for no effect and ±100 for the full control effect.

Row | SMILES | activity change, negative = inhibition
1 | Cc1csc(NC(=O)c2cc([N+](=O)[O-])cc([N+](=O)[O-])c2)n1 | inconclusive: -43%
2 | COc1ccc(OC(=O)Nc2ccc([N+](=O)[O-])cc2OC)cc1 | inconclusive: -51.3%
3 | Cc1ccc(N2C=Nc3ccc(C)c4nc(C)cc2c34)cc1 | inactive: -33.7%
4 | CCN(CC)c1ccc(C(=O)N2CCc3c([nH]c4ccccc34)C2c2ccc(F)cc2)cc1 (configuration not stated) | inconclusive: -44.4%
5 | COc1ccc(C(=O)COC(=O)/C=C/c2ccccc2[N+](=O)[O-])cc1 | inconclusive: -49.9%
6 | CNC(=O)CSc1nc2ccccc2c(=O)n1C1CCCCC1 | inactive: 151%
7 | CCN1CCCC1CNC(=O)c1ccc(Sc2ccc(F)cc2)c([N+](=O)[O-])c1 (configuration not stated) | inactive: -18%
8 | CC(C)[C@H](NC(=O)OC(C)(C)C)C(=O)NCC1CCC(C(=O)N[C@@H](Cc2ccccc2)C(=O)O)CC1 (some centres not stated) | inactive: 13.5%
9 | Cc1ccc(-n2[nH]c(C)c(/C=N/c3cccc(C)n3)c2=O)cc1 | inconclusive: -52.6%
10 | O=C1CN(c2nc3nonc3nc2N2CCCCC2)CCN1 | inactive: 35.9%
11 | CCCc1ccc(OCc2nc(-c3ccc(NC(=O)c4ccco4)cc3)no2)cc1 | inconclusive: -45.3%
12 | O=c1c2ccccc2nc(/C=C/c2cccc([N+](=O)[O-])c2)n1CCCO | inconclusive: -49.2%
13 | Cc1ccc(/C=N/n2c(COc3ccccc3)n[nH]c2=S)o1 | active: -90.4%
14 | Oc1ccc(Cl)cc1CNn1cnnc1 | inactive: -18.1%
15 | CCc1ccc2oc(-c3ccc(C)c(NC(=O)c4cc([N+](=O)[O-])ccc4N4CCOCC4)c3)nc2c1 | inconclusive: -47.6%
16 | Cc1cccnc1C(NC(=O)C1CCN(Cc2ccc(Cl)c(Cl)c2)CC1)c1ccc(Cl)cc1 (configuration not stated) | active: -88.1%
17 | COCC(=O)N1CCCN(c2nc3c(C)cccc3cc2C#N)CC1 | inconclusive: -43.1%
18 | CCCCc1ccc(-n2nc3ccc(NC(=O)c4cc5ccccc5o4)cc3n2)cc1 | active: -81.6%
19 | O=C1NC(=O)C2(CCCC2)N1 | inactive: 33.2%
20 | COc1ccc(S(=O)(=O)N2CCCCC2)cc1NC(=O)CN(Cc1ccco1)Cc1ccco1 | active: -69.7%
21 | Cn1c(=O)c2c(nc(SCC(=O)N3CCc4ccccc4C3)n2C)n(C)c1=O | inactive: 17.5%
22 | O=C(CSc1ccc(-c2cccnc2)nn1)N1CCCc2ccccc21 | inconclusive: -50.8%

Row | SMILES | activity change, negative = inhibition
23 | COc1ccc(-c2nc(N)nc(C)c2-c2ccc(Cl)cc2)c(O)c1 | inconclusive: -46.7%
24 | CCCc1[nH]nc2c1C(c1ccoc1)C(C#N)=C(N)O2 (configuration not stated) | inconclusive: -41%
25 | CC(C)(C)c1ccc(NC(=O)Cn2cnc3cc([N+](=O)[O-])ccc3c2=O)cc1 | inconclusive: -47%
26 | Cc1cc(C(=O)NC2CCCc3c2cnn3-c2ccc(C(C)(C)C)cc2)n[nH]1 (configuration not stated) | inconclusive: -54.8%
27 | CCOC(=O)c1cc2c(C)n(-c3ccc(C)cc3)c(C)c2ccc1=O | active: -96.3%
28 | CCC(C)[C@H](NS(=O)(=O)c1ccc(C)cc1)C(=O)N1CCC(C(=O)N2CCC(C(=O)OC)CC2)CC1 (some centres not stated) | inactive: 4%
29 | Cc1ccsc1/C=N/NC(=O)C(N)=O | inactive: -19.4%
30 | Fc1ccc(Cn2cc(C(=S)N3CCOCC3)c3ccccc32)cc1 | inconclusive: -42.4%
31 | CCN(CC)c1ccc(C(=O)NCc2nc3cccnc3n2Cc2ccc(C)cc2)cc1 | inactive: -30.9%
32 | CCCCOc1cccc(C(=O)NC(=S)Nc2cccc(NC(=O)c3ccccc3Cl)c2)c1 | inconclusive: -50.5%
33 | Cc1ccc(C2N=C(N)Nc3nc4ccccc4n32)cc1 (configuration not stated) | inactive: 14.5% and inactive: -17.2%
34 | O=C1CC(C(=O)N2CCCc3ccccc32)CN1c1ccc(Cl)cc1 (configuration not stated) | inconclusive: -40.2%
35 | O=C1NC(NS(=O)(=O)c2ccccc2)(C(F)(F)F)C(=O)N1Cc1cccnc1 (configuration not stated) | inactive: -11.4%
36 | O=C(CSc1nnc(-c2ccccc2)n1-c1ccc(Cl)cc1)N/N=C/c1ccco1 | inconclusive: -51.6%
37 | O=S(=O)(NCc1ccccc1)c1ccc(Br)c2nsnc12 | inconclusive: 0%
38 | CCOC(=O)c1c(C)[nH]c(C)c1S(=O)(=O)NCC(=O)Nc1cccc(SC)c1 | inactive: 1.62%
39 | O=[N+]([O-])c1ccc(/C=N/Nc2ncc(Br)cn2)cc1 | inactive: -24.4%
40 | CCOC(=O)Cc1csc(NC(=O)/C=C/c2ccc(OC)cc2)n1 | inactive: 31.5%
41 | COc1ccc(C(O)c2nc(-c3cc(F)cc(F)c3)cs2)cc1 (configuration not stated) | inconclusive: -58.8%
42 | CCC1CN(C(=O)N2CCC(C(=O)NCc3ccccc3OC)CC2)c2ccccc2O1 (configuration not stated) | inactive: -11.8%
43 | CCOC(=O)c1cccc(NC(=O)CCn2c(=O)oc3ccccc32)c1 | inconclusive: -53.7%
44 | COc1ccc(CN2CCC(C(=O)Nc3ccc(Oc4cccnc4)cc3)CC2)c(C)c1C | inconclusive: -57.1%

Row | SMILES | activity change, negative = inhibition
45 | Cc1cccc(NC(=S)N2CCN(C(=O)c3ccco3)CC2)c1C | inconclusive: -49.3%
46 | O=C(c1ccc([N+](=O)[O-])cc1)N1CCN(C2=NS(=O)(=O)c3ccccc32)CC1 | inactive: -4.75%
47 | C=CCN(CC=C)C(=O)Nc1cc(OC)ccc1OC | inactive: 27.6%
48 | COc1ccc(OC)c(CN2CCN(C(=O)c3cccc(S(=O)(=O)Nc4ccc(C)cc4)c3)CC2)c1 | inactive: -5.79%
49 | CCOC(=O)c1cc(NC(=O)c2cccs2)ccc1N1CCOCC1 | inactive: 7.29%
50 | CN1CCC(=NNC(=O)CN(c2cccc(Br)c2)S(C)(=O)=O)CC1 | inactive: 54%
51 | CC(Oc1ccc(Br)cc1)C(=O)Nc1ccncc1 (configuration not stated) | inconclusive: -46.6%
52 | O=C(Nc1ccc(CN2CCOCC2)cc1)c1ccc(Cl)cc1 | inconclusive: -42.1%
53 | CN1/C(=C/c2cccc[n+]2CCO)Sc2ccccc21 | inconclusive: -46.3%
54 | CCCc1nc2ccccc2n1CCc1ccccc1 | active: -73.6%
55 | CC(C)CN(C(=O)COC(=O)c1ccc2c(c1)NC(=O)CS2)C1CCS(=O)(=O)C1 (configuration not stated) | active: -84.2%
56 | N#CC(C#N)=C1C=C2C=C(N3CCCCCC3)CCC2CC1 (configuration not stated) | inconclusive: -56.3%
57 | CC(=O)N1c2ccc(S(=O)(=O)N3CCC(C(=O)Nc4cccc(Cl)c4C)CC3)cc2CC1C (configuration not stated) | inactive: -29%
58 | COc1ccc(-n2c(C)nc3c(cnn3-c3ccccc3)c2=O)cc1 | inconclusive: -55.9%
59 | Oc1oc(-c2ccccc2Br)nc1C=Nc1ccc(Br)cn1 | inconclusive: -44.1%
60 | COc1ccc(Br)cc1CNC(=O)c1cc(=O)[nH]c2ccc(S(=O)(=O)N3CCCCC3C)cc12 (configuration not stated) | inconclusive: -56.5%
61 | O=[N+]([O-])c1cccc(NC(=S)N2CCN(c3ccccn3)CC2)c1 | active: -65.3%
62 | CCc1ccc(NC2=NC(C(=O)c3ccccc3)CC(=O)N2)cc1 (configuration not stated) | inconclusive: -41.7%
63 | CC(NC(=O)COC(=O)c1cn(-c2ccccc2)nc1-c1cccs1)c1ccccc1 (configuration not stated) | inactive: -13.3%
64 | CCOC(=O)c1cnc(SCC#N)nc1N | inactive: -37.6%
65 | CC(=O)OCCn1c(C)[n+](CCOC(C)=O)c2cc(Cl)c(Cl)cc21 | inconclusive: -42%
66 | COc1ccc(C(=O)Nc2nc3cc4c(cc3s2)OCCO4)c(OC)c1 | inconclusive: 0%

In another format: 19 of the compounds above
Row	SMILES	activity change, negative = inhibition
10	O=C1CN(c2nc3nonc3nc2N2CCCCC2)CCN1	inactive: 35.9%
11	CCCc1ccc(OCc2nc(-c3ccc(NC(=O)c4ccco4)cc3)no2)cc1	inconclusive: -45.3%
12	O=c1c2ccccc2nc(/C=C/c2cccc([N+](=O)[O-])c2)n1CCCO	inconclusive: -49.2%
13	Cc1ccc(/C=N/n2c(COc3ccccc3)n[nH]c2=S)o1	active: -90.4%
14	Oc1ccc(Cl)cc1CNn1cnnc1	inactive: -18.1%
19	O=C1NC(=O)C2(CCCC2)N1	inactive: 33.2%
27	CCOC(=O)c1cc2c(C)n(-c3ccc(C)cc3)c(C)c2ccc1=O	active: -96.3%
33	Cc1ccc(C2N=C(N)Nc3nc4ccccc4n32)cc1 (configuration not stated)	inactive: 14.5% and inactive: -17.2%
37	O=S(=O)(NCc1ccccc1)c1ccc(Br)c2nsnc12	inconclusive: 0%
43	CCOC(=O)c1cccc(NC(=O)CCn2c(=O)oc3ccccc32)c1	inconclusive: -53.7%
45	Cc1cccc(NC(=S)N2CCN(C(=O)c3ccco3)CC2)c1C	inconclusive: -49.3%
48	COc1ccc(OC)c(CN2CCN(C(=O)c3cccc(S(=O)(=O)Nc4ccc(C)cc4)c3)CC2)c1	inactive: -5.79%
49	CCOC(=O)c1cc(NC(=O)c2cccs2)ccc1N1CCOCC1	inactive: 7.29%
50	CN1CCC(=NNC(=O)CN(c2cccc(Br)c2)S(C)(=O)=O)CC1	inactive: 54%
55	CC(C)CN(C(=O)COC(=O)c1ccc2c(c1)NC(=O)CS2)C1CCS(=O)(=O)C1 (configuration not stated)	active: -84.2%
58	COc1ccc(-n2c(C)nc3c(cnn3-c3ccccc3)c2=O)cc1	inconclusive: -55.9%
59	Oc1oc(-c2ccccc2Br)nc1C=Nc1ccc(Br)cn1	inconclusive: -44.1%
60	COc1ccc(Br)cc1CNC(=O)c1cc(=O)[nH]c2ccc(S(=O)(=O)N3CCCCC3C)cc12 (configuration not stated)	inconclusive: -56.5%
61	O=[N+]([O-])c1cccc(NC(=S)N2CCN(c3ccccn3)CC2)c1	active: -65.3%

Some of the entries so far, field by field.
Oc1oc(-c2ccccc2Br)nc1C=Nc1ccc(Br)cn1
  activity change, negative = inhibition: inconclusive: -44.1%
COc1ccc(Br)cc1CNC(=O)c1cc(=O)[nH]c2ccc(S(=O)(=O)N3CCCCC3C)cc12 (configuration not stated)
  activity change, negative = inhibition: inconclusive: -56.5%

Carrying on.

Row | SMILES | activity change, negative = inhibition
67 | Cc1ccc(S(=O)(=O)/C(C#N)=C/c2ccccc2OCc2ccccc2)cc1 | active: -68.9%
68 | O=C(CNC(=O)c1ccc(F)cc1)N/N=C/c1cc(Br)ccc1OC(=O)/C=C/c1ccco1 | active: -77.1%
69 | O=C(Cn1c(CO)nc2ccccc21)Nc1ccccc1Cl | inconclusive: -43.3%
70 | O=C(Nc1cccc(Cl)c1)N1CCN(Cc2ccccc2)CC1 | inactive: 47.4%
71 | CC(OC(=O)CCN1C(=O)C2CC=CCC2C1=O)C(=O)Nc1ccc(F)cc1 (configuration not stated) | inactive: 11.5%
72 | CC(/C=C/c1ccccc1)=N/NC(=O)C(O)c1ccccc1 (configuration not stated) | inconclusive: -46.6%
73 | O=C(/C=C\Nc1ccc2c(c1)OCO2)c1ccc2c(c1)OCO2 | inactive: 123%
74 | CC[n+]1c(/C=C/N(C)c2ccccc2)oc2ccc(F)cc21 | active: -84.8%
75 | COc1cc2cc(CN(CCc3cccc(C)c3)C(=S)NCCCN3CCOCC3)c(=O)[nH]c2cc1OC | active: -81.6%
76 | COCCNC(=S)N(CCc1c(C)[nH]c2ccc(F)cc12)Cc1ccco1 | inconclusive: -47.2%
77 | COCc1cccc(-c2csc(C(O)c3ccc(F)c(F)c3)n2)c1 (configuration not stated) | inactive: -9.13%
78 | Cc1ccc(C(=O)N2CCN(c3ccc(NC(=S)NC(=O)c4cccs4)cc3)CC2)cc1 | active: -74.1%
79 | Cc1ccc(/C=N\NC(=O)Cc2cccn2C)o1 | inconclusive: -51.7%
80 | COCCN(C(=O)c1ccc2c(c1)C(=O)N(c1ccccc1Cl)C2=O)c1c(N)n(CC(C)C)c(=O)[nH]c1=O | inconclusive: 0%
81 | CCCCCc1nnc(NC(=O)Cn2cnc3ccccc3c2=O)s1 | inconclusive: -54%
82 | CCOC(=O)C1CCCN(c2c(C(=O)c3ccc(C)cc3)cnc3ccc(OCC)cc23)C1 (configuration not stated) | inconclusive: -45.3%
83 | COc1ccc(CC(=O)Nc2ccc3nc(Nc4cccc(Cl)c4)cc(C)c3c2)cc1 | active: -102%
84 | COC(=O)N=Nc1c(O)[nH]c2ccc(Br)cc12 | inactive: -22.6%
85 | COc1ccc(Oc2ccccc2C#N)cc1 | inconclusive: -46.1%
86 | Cc1ccc(-c2nc(CN3C(=O)CN=C(c4ccccc4)c4cc(Cl)ccc43)c(C)o2)cc1 | inactive: -4.98%
87 | Cc1ccc(S(=O)(=O)c2cc3cc(Br)ccc3oc2=O)cc1 | inactive: -39.5%

From PubChem BioAssay AID1259415 (National Center for Advancing Translational Sciences (NCATS), 2018)
